Measurements as given in the supplement of paper PMC10849652.
Some of the results follow.

The chains behind the UniProt entries cited, without tags or fusion partners. Where a name states a change or a piece, a line headed by the entry shows the natural chain unless it says otherwise.
UniProt Q658P3: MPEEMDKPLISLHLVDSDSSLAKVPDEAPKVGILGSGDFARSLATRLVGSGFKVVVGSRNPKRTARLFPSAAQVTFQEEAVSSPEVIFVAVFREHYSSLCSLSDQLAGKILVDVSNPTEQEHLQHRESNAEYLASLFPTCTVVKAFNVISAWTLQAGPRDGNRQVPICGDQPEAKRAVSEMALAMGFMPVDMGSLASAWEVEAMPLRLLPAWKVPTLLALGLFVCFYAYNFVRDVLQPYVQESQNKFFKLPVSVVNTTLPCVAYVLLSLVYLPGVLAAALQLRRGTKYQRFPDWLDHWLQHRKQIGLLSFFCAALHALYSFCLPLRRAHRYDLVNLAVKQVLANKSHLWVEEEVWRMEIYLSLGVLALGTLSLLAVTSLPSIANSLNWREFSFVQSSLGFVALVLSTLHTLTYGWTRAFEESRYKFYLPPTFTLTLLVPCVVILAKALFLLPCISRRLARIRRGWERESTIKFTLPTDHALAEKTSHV
UniProt P10124: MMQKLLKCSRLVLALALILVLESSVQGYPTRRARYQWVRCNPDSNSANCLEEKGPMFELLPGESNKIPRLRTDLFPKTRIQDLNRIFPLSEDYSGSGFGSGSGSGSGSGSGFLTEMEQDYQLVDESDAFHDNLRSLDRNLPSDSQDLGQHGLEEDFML
UniProt P49458: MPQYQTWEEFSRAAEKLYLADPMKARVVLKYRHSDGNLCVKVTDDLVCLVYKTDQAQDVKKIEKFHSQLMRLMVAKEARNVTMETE
UniProt Q15005: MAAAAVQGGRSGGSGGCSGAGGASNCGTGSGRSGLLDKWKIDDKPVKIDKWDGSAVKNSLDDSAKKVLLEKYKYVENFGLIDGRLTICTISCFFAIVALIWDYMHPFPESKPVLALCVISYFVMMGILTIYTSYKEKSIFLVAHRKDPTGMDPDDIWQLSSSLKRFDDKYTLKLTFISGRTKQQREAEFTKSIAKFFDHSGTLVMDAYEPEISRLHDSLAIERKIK

Key:
Test in all cases: log2 fold change, soluble protein after heating vs DMSO (PISA); higher = thermal stabilisation; K562 lysate, 10 uM; active = over 0.2 and 3.5 SD of the protein, either way, in both replicates (recomputed)
[1] = compound: C=CC(=O)N1CCC[C@@H](n2nc(-c3ccc(Oc4ccccc4)cc3)c3c(N)ncnc32)C1 [ibrutinib]
Procedure, shortened: (§1)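 Quantification was by TMTpro 16plex LC-MS/MS with equalised channel sums, applied to the supernatant after 21,000xg for 90 min. Samples were crude K562 extract at 1 mg/mL protein in PBS pH 7.4 with 1 mM MgCl2, treated with 10 μM compound for 30 min, heated for 3 min across 48°C-58°C, pooled and brought to 0.5% NP-40 at 4°C. Values are log-two fold changes in thermal stability relative to solvent controls, from duplicates.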

[2] = compound: CC(=O)c1cnc2ccc(-c3cc(Cl)c(O)c(Cl)c3)nc2c1N[C@H]1CC[C@H](CN(C)C)CC1
Procedure, shortened: as §1

[3] = compound: CC(C)(C)Cn1c(N)nc2ccc(-c3[nH]c(C(C)(C)C)nc3-c3ccc(F)cc3)nc21 [ralimetinib]
Procedure, shortened: as §1

[4] = compound: CC(C)(O)CC(=O)NCCn1ccc2ncnc(Nc3ccc(Oc4cccc(C(F)(F)F)c4)c(Cl)c3)c21
Procedure, shortened: as §1

[5] = compound: CC1=C(C(CC(=O)N1)C2=CC=C(C=C2)C(F)(F)F)C(=O)NC3=C(C=C4C(=C3)C=NN4)F
Procedure, shortened: as §1

[6] = compound: CC1=C(C2=C(C=C1)C(=O)C3=CC=CC=C3N2CCCN)C
Procedure, shortened: as §1

[7] = compound: CC1=C(C=C(C=C1)NC(=O)C2=CC(=CC=C2)C(C)(C)C#N)NC3=CC4=C(C=C3)N=CN(C4=O)C
Procedure, shortened: as §1

[8] = compound: CC1=C(C=C(C=C1)NC(=O)C2=CC(=CC=C2)N(C)C)NC(=O)C3=CC=C(C=C3)O
Procedure, shortened: as §1

[9] = compound: CC1=CC=C(C=C1)SC2=C3C=C(SC3=CN=C2)C(=O)N
Procedure, shortened: as §1

[10] = compound: CCCS(=O)(=O)Nc1ccc(F)c(C(=O)c2c[nH]c3ncc(-c4ccc(Cl)cc4)cc23)c1F [vemurafenib]
Procedure, shortened: as §1

[11] = compound: CCCS(=O)(=O)Nc1ccc(F)c(C(=O)c2c[nH]c3ncc(Cl)cc23)c1F
Procedure, shortened: as §1

[12] = compound: CCN(CCCOc1ccc2c(Nc3cc(CC(=O)Nc4cccc(F)c4)[nH]n3)ncnc2c1)CCOP(=O)(O)O [barasertib]
Procedure, shortened: as §1

[13] = compound: CC[C@@H]1C(=O)N(C)c2cnc(Nc3ccc(C(=O)NC4CCN(C)CC4)cc3OC)nc2N1C1CCCC1
Procedure, shortened: as §1

[14] = compound: CC[C@@H]1C(=O)N(C)c2cnc(Nc3ccc(C(=O)N[C@H]4CC[C@H](N5CCN(CC6CC6)CC5)CC4)cc3OC)nc2N1C(C)C [volasertib]
Procedure, shortened: as §1

[15] = compound: CCn1c(C(=O)N(C2CC2)C2CC2)cc2c3c(ncn3C)c(Nc3cc(C)n(C)n3)nc21
Procedure, shortened: as §1

[16] = compound: CCn1cc(-c2ccnc3[nH]c(-c4cccc(CN(C)C)c4)cc23)c(-c2ccc(NC(=O)N(C)C)cc2)n1
Procedure, shortened: as §1

[17] = compound: CN1CCC(CNc2ccc3ncc(-c4cccc(OC(F)(F)F)c4)n3n2)CC1
Procedure, shortened: as §1

[18] = compound: CN1CCN(CCOc2cc(OC3CCOCC3)c3c(Nc4c(Cl)ccc5c4OCO5)ncnc3c2)CC1 [saracatinib]
Procedure, shortened: as §1

[19] = compound: CN1CCN(c2nc(C3=C(c4c[nH]c5ccccc45)C(=O)NC3=O)c3ccccc3n2)CC1 [sotrastaurin]
Procedure, shortened: as §1

[20] = compound: CC(C)C1=C2N=C(C=C(N2N=C1)NCC3=CC=CC=C3)NCCCCCCN
Procedure, shortened: as §1

Measured: log2 fold change

STEAP3 isoform 2 (UniProt Q658P3)
inactive: [1] 0.011 | [2] 0.049 | [3] -0.001 | [4] -0.121 | [5] -0.006 | [6] 0.002 | [7] -0.034 | [8] -0.013 | [9] -0.04 | [10] 0.002 | [11] 0.035 | [12] 0.032 | [13] 0.082 | [14] -0.035 | [15] -0.037 | [16] -0.034 | [17] 0.108 | [18] -0.041 | [19] 0.056

SRGN (UniProt P10124)
inactive: [1] 0.109 | [2] 0.084 | [3] 0.001 | [4] -0.159 | [20] -0.018 | [6] -0.079 | [7] 0.104 | [8] -0.064 | [9] -0.064 | [10] 0.177 | [11] 0.093 | [12] -0.033 | [13] 0.059 | [14] -0.086 | [15] -0.005 | [16] -0.022 | [17] 0.101 | [18] 0.043 | [19] 0.069

SRP9 (UniProt P49458)
inactive: [1] -0.011 | [2] -0.007 | [3] -0.011 | [4] 0.014 | [20] 0.033 | [5] 0.016 | [6] -0.014 | [7] -0.031 | [8] -0.001 | [9] 0.008 | [10] -0.01 | [11] -0.009 | [12] 0.012 | [13] -0.019 | [14] 0.022 | [15] 0.013 | [16] -0.029 | [17] -0.029 | [18] -0.018 | [19] -0.04

SQSTM1 (UniProt Q13501)
inactive: [1] -0.022 | [2] 0.009 | [3] -0.014 | [4] -0.041 | [20] 0.015 | [5] -0.084 | [6] -0.054 | [7] 0.032 | [8] 0.027 | [9] 0.017 | [10] 0.037 | [11] 0.04 | [12] -0.004 | [13] 0.05 | [14] -0.023 | [15] -0.025 | [16] 0.039 | [17] -0.026 | [18] 0.042 | [19] 0.025

SPCS2 (UniProt Q15005)
inactive: [1] -0.028 | [2] 0.008 | [3] 0.001 | [4] 0 | [20] -0.058 | [5] 0 | [6] 0.027 | [7] -0.006 | [8] -0.01 | [9] 0.001 | [10] 0.018 | [11] 0.003 | [12] 0.009 | [13] -0.005 | [14] -0.01 | [15] 0.032 | [16] 0.12 | [17] -0.156 | [18] -0.005 | [19] -0.007

Two successive records already listed, quoted:
SRP9 (UniProt P49458)
inactive: [1] -0.011 | [2] -0.007 | [3] -0.011 | [4] 0.014 | [20] 0.033 | [5] 0.016 | [6] -0.014 | [7] -0.031 | [8] -0.001 | [9] 0.008 | [10] -0.01 | [11] -0.009 | [12] 0.012 | [13] -0.019 | [14] 0.022 | [15] 0.013 | [16] -0.029 | [17] -0.029 | [18] -0.018 | [19] -0.04

SQSTM1 (UniProt Q13501)
inactive: [1] -0.022 | [2] 0.009 | [3] -0.014 | [4] -0.041 | [20] 0.015 | [5] -0.084 | [6] -0.054 | [7] 0.032 | [8] 0.027 | [9] 0.017 | [10] 0.037 | [11] 0.04 | [12] -0.004 | [13] 0.05 | [14] -0.023 | [15] -0.025 | [16] 0.039 | [17] -0.026 | [18] 0.042 | [19] 0.025
